Some of the results follow. Further columns of the screen follow, without active or inactive calls. Compounds called inactive in the main read-out are mostly missing here. The note in brackets gives the kind of curve behind each potency; many fits are weak.
Test: qHTS Assay to Find Inhibitors of Chronic Active B-Cell Receptor Signaling
Conditions: ABC-DLBCL IkBa-CBG/CBR reporter, luminescence ratio (green luciferase fused to IkBa over red control in TMD8 lymphoma cells), 4 h
How it was run: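 Doxycycline induced both beetle luciferases in TMD8 lymphoma cells; IKK-driven degradation limits the IkappaBalpha-fused green signal, while red luminescence normalises for cell number and nonspecific effects. Compounds tested up to 46 uM, 4 hrs.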

[1] = measured here: CBR red luminescence, cell number

SMILES	AC50 [1]	AC50 (measured here: IkBa-CBG green luminescence)
COc1ccc(CNCCC(c2ccc(OC)cc2)c2ccccc2OC)cc1 (centres undefined)	35.5 µM [falling, single point]	
CCN(CC)CCn1nc2c3c(cccc3c1=O)-c1ccccc1-2	11.2 µM [falling, single point]	
CCCCN(C)CCC(=O)Nc1ccc(Cl)cc1	10.3 µM [rising, single point]	
CO[C@@H]1[C@@H](OC(N)=O)[C@@H](O)C(Oc2ccc3c(O)c(NC(=O)c4ccc(O)c(CC=C(C)C)c4)c(=O)oc3c2C)OC1(C)C (some centres undefined)	29.1 µM [falling, single point]	
Cc1ccc(NCC(=O)N/N=C/c2ccc(OC(=O)c3ccco3)cc2)cc1	1 µM [falling, partial curve, poor fit]	
O=C(CCC(=O)Nc1nnc(C2CCCCC2)s1)NCc1cccs1	3.16 µM [rising, full curve, poor fit]	
O=C(N/N=C\c1ccc(Cl)s1)c1cccs1	18.4 µM [falling, single point]	
CCOC(=O)CSc1ncc(-c2ccccc2)nn1	0.517 µM [falling, full curve, poor fit]	
Cc1ccc2sc(N(CCCN(C)C)C(=O)CN3C(=O)c4ccccc4C3=O)nc2c1C	35.5 µM [falling, partial curve, poor fit]	
CCN1CCN(c2ccc(S(=O)(=O)N3CCOCC3)cc2NC(=O)/C=C/c2ccc([N+](=O)[O-])cc2)CC1	29.1 µM [rising, single point]	23.1 µM [falling, single point]
CCCC(=O)Nc1nc(-c2ccccc2)ns1	14.6 µM [falling, single point]	
CCOc1ccc(NC(=O)COC(=O)C2CC2C)cc1 (centres undefined)	1.64 µM [rising, full curve]	
CC(C)[C@H](NC(=O)c1ccccc1Cl)C(=O)OCc1cc(=O)n2cc(Br)ccc2n1	8.91 µM [rising, partial curve]	
O=C(NC(=S)Nc1ccc(S(=O)(=O)N2CCCCC2)cc1)c1ccc(Cl)cc1	3.26 µM [falling, single point]	
O=c1[nH]c(SCc2ccccc2Cl)nc2c1cnn2-c1ccccc1	29.1 µM [rising, single point]	
O=C(CSc1n[nH]c(-c2ccncc2)n1)Nc1ccc(Cl)c(Cl)c1	35.5 µM [falling, single point]	
Cc1ccsc1C(=O)NNC(=O)C1CCCCC1C(=O)O (centres undefined)	1.46 µM [falling, partial curve]	
Cc1cc([N+](=O)[O-])nn1CCCC(=O)NCc1ccc(F)cc1	20 µM [rising, single point]	

One compound at a time, from the list above.
Cc1ccsc1C(=O)NNC(=O)C1CCCCC1C(=O)O (centres undefined) as listed: AC50 [1]: 1.46 µM [falling, partial curve]
CCCC(=O)Nc1nc(-c2ccccc2)ns1 as listed: AC50 [1]: 14.6 µM [falling, single point]
